From PubChem BioAssay AID308 (DTP/NCI, 2004)
The list is a part of this screen's results and no random one: it is rich in T/C values a quarter to a half above the control, in often repeated tests (any T/C) and in doses without a T/C. Other doses and runs of a compound stand elsewhere. T/C gives the treated animals as a percentage of the vehicle group. Some entries give survivors of the animals treated and no T/C: the source files T/C as zero there, which appears to mark a toxic dose or a test without result, not a measured value. Some doses without a T/C left all or most animals alive at the check, yet need not have been tolerated: survival well below the control is almost never listed, so the zero probably covers shortened survival too. Survivors were counted at the toxicity check, usually on the fifth day, unless a day is given; later deaths do not show. Schedule codes are those of the source, read here as Q, the interval in days (D) or hours (H), X, the number of doses. Some entries hold several experiments; the values are given in rising order. Some schedules carry Z or #; the key to these is not given. Where survival is the endpoint, the PubChem record calls one and a half times the control and up active, and a quarter to a half above the control has no call in these data; cut-offs in other NCI protocols can differ. Some T/C values are followed by the survivors on the day toxicity was checked, most often the fifth; without a count, all were alive then. Marks such as (2×) give the number of equal values in this list.

Tested on: BDF1 mice, L1210 6-MP/6-TG resistant leukemia ip, survival T/C
Assay: NCI In Vivo Anticancer Drug Screen. Data for tumor model L1210 Leukemia resistant to 6-MP and 6-Thioguanine; NSC 755, NSC 752 (intraperitoneal) in B6D2F1 (BDF1) mice
Settings: T/C endpoint: mean survival time, higher T/C = longer survival
Experimental: The antitumor activity of compounds was measured in mice bearing transplantable tumors. Survival or tumor size were measured and the results are expressed as the measurement made in the treated group (T) divided by the measurement made in the vehicle treated control group (C). The tumor model used in this assay is L1210 Leukemia resistant to 6-MP and 6-Thioguanine; NSC 755, NSC 752 (intraperitoneal) in B6D2F1 (BDF1) mice

[1] = dose: 117.0 mg/kg/injection, schedule: Q01DX001 (ip), vehicle: saline
[2] = dose: 134.0 mg/kg/injection, schedule: Q01DX001 (ip), vehicle: saline
[3] = dose: 175.0 mg/kg/injection, schedule: Q01DX001 (ip), vehicle: saline
[4] = dose: 200.0 mg/kg/injection, schedule: Q01DX001 (ip), vehicle: saline

CSc1ncnc2c1ncn2C1OC(CO)C(O)C1O (stereo unspecified)
T/C (dose: 4.0 mg/kg/injection, schedule: Q01DX Z (ip), vehicle: saline): 125 % of control
T/C (dose: 5.0 mg/kg/injection, schedule: Q01DX015 (ip), vehicle: saline, evaluated on day 45): 131 and 132 % of control
T/C (dose: 5.0 mg/kg/injection, schedule: Q01DX015 (ip), vehicle: saline, run until all animals had died): 99, 101, 122, 127 % of control
T/C (dose: 5.0 mg/kg/injection, schedule: Q01DX Z (ip), vehicle: clinical formulation): 137 % of control
T/C (dose: 5.0 mg/kg/injection, schedule: Q01DX Z (ip), vehicle: saline): 132 % of control
T/C (dose: 6.0 mg/kg/injection, schedule: Q01DX Z (ip), vehicle: saline): 128 % of control
T/C (dose: 7.0 mg/kg/injection, schedule: Q01DX015 (ip), vehicle: saline): 140 % of control
T/C (dose: 7.0 mg/kg/injection, schedule: Q01DX Z (ip), vehicle: clinical formulation): 140 % of control
T/C (dose: 8.0 mg/kg/injection, schedule: Q01DX Z (ip), vehicle: saline): 134 % of control
T/C (dose: 8.8 mg/kg/injection, schedule: Q01DX015 (ip), vehicle: saline): 127 % of control
T/C (dose: 9.0 mg/kg/injection, schedule: Q01DX015 (ip), vehicle: saline, evaluated on day 46): 129 % of control
T/C (dose: 9.0 mg/kg/injection, schedule: Q01DX015 (ip), vehicle: saline, run until all animals had died): 130 % of control
T/C (dose: 10.0 mg/kg/injection, schedule: Q01DX015 (ip), vehicle: saline): 97, 99, 137, 147, 162 % of control
T/C (dose: 11.0 mg/kg/injection, schedule: Q01DX015 (ip), vehicle: saline): 133 and 138 % of control
T/C (dose: 11.0 mg/kg/injection, schedule: Q01DX Z (ip), vehicle: clinical formulation): 143 % of control
T/C (dose: 11.0 mg/kg/injection, schedule: Q01DX Z (ip), vehicle: saline): 147 % of control
T/C (dose: 12.0 mg/kg/injection, schedule: Q01DX015 (ip), vehicle: saline): 137 % of control
T/C (dose: 12.0 mg/kg/injection, schedule: Q01DX Z (ip), vehicle: saline): 145 % of control
T/C (dose: 13.0 mg/kg/injection, schedule: Q01DX015 (ip), vehicle: saline): 133 and 137 % of control
T/C (dose: 14.0 mg/kg/injection, schedule: Q## X032 (ip), vehicle: saline): 127 % of control
T/C (dose: 15.0 mg/kg/injection, schedule: Q01DX015 (ip), vehicle: saline): 108, 110, 136, 145, 152 % of control
T/C (dose: 16.0 mg/kg/injection, schedule: Q01DX Z (ip), vehicle: saline): 147 [9 of 10 alive] and 149 % of control
T/C (dose: 18.0 mg/kg/injection, schedule: Q01DX015 (ip), vehicle: saline): 142 % of control
T/C (dose: 20.0 mg/kg/injection, schedule: Q01DX010 (ip), vehicle: saline): 134 % of control
T/C (dose: 20.0 mg/kg/injection, schedule: Q01DX015 (ip), vehicle: saline, evaluated on day 46): 142 and 158 % of control
T/C (dose: 20.0 mg/kg/injection, schedule: Q01DX015 (ip), vehicle: saline, run until all animals had died): 113, 120, 148, 161, 182 % of control
T/C (dose: 20.0 mg/kg/injection, schedule: Q02DX008 (ip), vehicle: saline): 133 % of control
T/C (dose: 20.0 mg/kg/injection, schedule: Q## X004 (ip), vehicle: saline): 125 % of control
T/C (dose: 22.0 mg/kg/injection, schedule: Q## X032 (ip), vehicle: saline): 140 % of control
T/C (dose: 24.0 mg/kg/injection, schedule: Q01DX015 (ip), vehicle: saline): 128 % of control
survivor count (dose: 24.0 mg/kg/injection, schedule: Q01DX Z (ip), vehicle: clinical formulation): 6 of 6
T/C (dose: 24.0 mg/kg/injection, schedule: Q01DX Z (ip), vehicle: saline): 133 % of control
T/C (dose: 24.0 mg/kg/injection, schedule: Q01DX Z (oral), vehicle: saline): 139 % of control
T/C (dose: 25.0 mg/kg/injection, schedule: Q01DX015 (ip), vehicle: saline): 122, 130 [9 of 10 alive], 149, 150 % of control
T/C (dose: 25.0 mg/kg/injection, schedule: Q01DX Z (ip), vehicle: saline): 139 % of control
survivor count (dose: 30.0 mg/kg/injection, schedule: Q01DX010 (ip), vehicle: saline): 10 of 10
T/C (dose: 30.0 mg/kg/injection, schedule: Q01DX015 (ip), vehicle: saline): 135 and 138 % of control
T/C (dose: 30.0 mg/kg/injection, schedule: Q02DX008 (ip), vehicle: saline): 145 % of control
T/C (dose: 30.0 mg/kg/injection, schedule: Q## X004 (ip), vehicle: saline): 136 % of control
T/C (dose: 32.0 mg/kg/injection, schedule: Q01DX Z (oral), vehicle: saline): 125 % of control
T/C (dose: 32.0 mg/kg/injection, schedule: Q## X032 (ip), vehicle: saline): 147 % of control
survivor count (dose: 36.0 mg/kg/injection, schedule: Q01DX015 (ip), vehicle: saline): 10 of 10
survivor count (dose: 40.0 mg/kg/injection, schedule: Q01DX015 (ip), vehicle: saline): 10 of 10
T/C (dose: 48.0 mg/kg/injection, schedule: Q## X032 (ip), vehicle: saline): 146 % of control
survivor count (dose: 53.0 mg/kg/injection, schedule: Q01DX015 (ip), vehicle: saline): 7 of 10 and 8 of 10
T/C (dose: 61.0 mg/kg/injection, schedule: Q01DX001 (ip), vehicle: alkali diluted with saline): 127 % of control
survivor count (dose: 64.0 mg/kg/injection, schedule: Q01DX Z (ip), vehicle: saline): 10 of 10
survivor count (dose: 64.0 mg/kg/injection, schedule: Q01DX Z (oral), vehicle: saline): 10 of 10
T/C (dose: 67.0 mg/kg/injection, schedule: Q02DX008 (ip), vehicle: saline): 147 % of control
T/C (dose: 72.0 mg/kg/injection, schedule: Q## X032 (ip), vehicle: saline): 131 % of control
survivor count (dose: 75.0 mg/kg/injection, schedule: Q01DX Z (ip), vehicle: saline): 6 of 6
survivor count (dose: 80.0 mg/kg/injection, schedule: Q01DX015 (ip), vehicle: saline): 0 of 10 and 1 of 10
T/C (dose: 90.0 mg/kg/injection, schedule: Q01DX001 (ip), vehicle: saline): 128 % of control
T/C (dose: 92.0 mg/kg/injection, schedule: Q01DX001 (ip), vehicle: saline): 128 % of control
survivor count (dose: 96.0 mg/kg/injection, schedule: Q01DX Z (oral), vehicle: saline): 9 of 10
T/C (dose: 100.0 mg/kg/injection, schedule: Q01DX001 (ip), vehicle: saline): 118, 119, 121, 124 % of control
T/C [1]: 97 [8 of 10 alive] and 140 % of control [7 of 10 alive]
survivor count [1]: 3 of 10, 4 of 10, 5 of 10
T/C (dose: 121.0 mg/kg/injection, schedule: Q01DX001 (ip), vehicle: saline): 131 % of control
T/C (dose: 125.0 mg/kg/injection, schedule: Q01DX001 (ip), vehicle: saline): 120, 122 (2×), 124, 125 (2×), 127, 137 % of control
T/C [2]: 128 % of control
survivor count [2]: 5 of 10
T/C (dose: 138.0 mg/kg/injection, schedule: Q01DX001 (ip), vehicle: alkali diluted with saline): 138 % of control
survivor count (dose: 144.0 mg/kg/injection, schedule: Q01DX Z (oral), vehicle: saline): 9 of 10
T/C (dose: 150.0 mg/kg/injection, schedule: Q01DX001 (ip), vehicle: saline): 111 [9 of 10 alive], 113 [9 of 10 alive], 117, 120, 121, 135 [9 of 10 alive], 138 [9 of 10 alive], 144 % of control
survivor count (dose: 167.0 mg/kg/injection, schedule: Q01DX001 (ip), vehicle: saline): 3 of 10
T/C [3]: 111, 113, 118 [9 of 10 alive], 121, 121 [9 of 10 alive], 123, 126 [7 of 10 alive], 137 % of control [7 of 10 alive]
survivor count [3]: 0 of 10, 1 of 10, 2 of 10, 3 of 10
T/C (dose: 181.0 mg/kg/injection, schedule: Q01DX001 (ip), vehicle: saline): 137 % of control
T/C [4]: 118 [8 of 10 alive], 122 [9 of 10 alive], 130, 132 % of control [8 of 10 alive]
survivor count [4]: 0 of 10 and 6 of 10
survivor count (dose: 207.0 mg/kg/injection, schedule: Q01DX001 (ip), vehicle: saline): 6 of 10
survivor count (dose: 217.0 mg/kg/injection, schedule: Q01DX Z (oral), vehicle: saline): 8 of 10
T/C (dose: 274.0 mg/kg/injection, schedule: Q01DX001 (ip), vehicle: saline): 132 % of control [7 of 10 alive]
survivor count (dose: 310.0 mg/kg/injection, schedule: Q01DX001 (ip), vehicle: alkali diluted with saline): 0 of 10 and 5 of 10
survivor count (dose: 450.0 mg/kg/injection, schedule: Q01DX001 (ip), vehicle: saline): 1 of 10
